# Experimental data as given in patent US20180256561A1, “Pharmaceutical Combination” (GLAXOSMITHKLINE INTELLECTUAL PROPERTY DEVELOPMENT LIMITED, priority 2015, published 2018).
# For at least one compound, name, drawing or mass did not settle the structure.
# Key:
# [1] = test system: subjects with COPD; conditions: cited from earlier work
# [2] = test system: subjects with COPD; conditions: cited from earlier work; remark: listed apart in the source
# [3] = test system: subjects with persistent uncontrolled asthma; assay: Randomised, double-blind, placebo-controlled parallel group study of fluticasone furoate in subjects with persistent uncontrolled asthma (8 weeks); assay type: in vivo, human; conditions: 50-200 mcg once daily, p<0.05
# Protocol: In one such study, the safety and efficacy of four doses of fluticasone furoate in subjects with persistent uncontrolled asthma were evaluated. In this study, which was a randomised, double-blind, placebo-controlled, parallel group study, 598 patients received one of six treatments: fluticasone furoate (25, 50, 100 or 200 mcg) once daily, fluticasone propionate 100 mcg twice daily or placebo for 8 weeks. The primary endpoint was change from baseline in trough (pre-dose) forced expiratory volume in 1 second (FEV1) at Week 8. […] This study supports the use of fluticasone furoate (100 or 200 mcg once-daily) for the treatment of persistent uncontrolled asthma.
# [4] = vs tiotropium once-daily (18 mcg) plus salmeterol twice-daily (50 mcg)
compound,measurement,setting,value
"COc1cc(NC(=O)CCN2CCC(OC(=O)Nc3ccccc3-c3ccccc3)CC2)c(Cl)cc1CNC[C@H](O)c1ccc(O)c2[nH]c(=O)ccc12 [Compound 1, biphenyl-2-ylcarbamic acid 1-[2-(2-chloro-4-{[(R)-2-hydroxy-2-(8-hydroxy-2-oxo-1,2-dihydroquinolin-5-yl)ethylamino]methyl}-5-methoxyphenylcarbamoyl)ethyl]piperidin-4-yl ester]",pulmonary function compared to placebo,"[1]; 400 mcg and 1200 mcg once daily (DISKUS), 14-day treatment period",statistically significant improvements
same,bronchodilation compared with tiotropium plus salmeterol,[1]; [4],sustained bronchodilation similar to tiotropium once-daily (18 mcg) plus salmeterol twice-daily (50 mcg)
same,onset of bronchodilation compared with tiotropium plus salmeterol,[1]; [4],more rapid onset
same,once-daily versus twice-daily dosing,[2]; 28-day study,no significant differences
same,onset,[2]; 28-day study,rapid onset
same,"trough FEV1 on day 29, difference from placebo","[2]; 100, 400, 800 mcg once-daily and 100, 200, 400 mcg twice-daily (DISKUS), 28-day treatment",statistically and clinically significant differences from placebo at all doses investigated
"C[C@@H]1C[C@H]2[C@@H]3C[C@H](F)C4=CC(=O)C=C[C@]4(C)[C@@]3(F)[C@@H](O)C[C@]2(C)[C@@]1(OC(=O)c1ccco1)C(=O)SCF [Compound 2, 6α,9α-difluoro-17α-[(2-furanylcarbonyl)oxy]-11β-hydroxy-16α-methyl-3-oxo-androsta-1,4-diene-17β-carbothioic acid S-fluoromethyl ester]",increase in trough FEV1 from baseline at Week 8 relative to placebo,[3],significantly greater increases
